Laboratory results from patent publication EP0800516B1, “FIBRINOGEN RECEPTOR ANTAGONISTS HAVING SUBSTITUTED (b)-AMINO ACID RESIDUES AND PHARMACEUTICAL COMPOSITIONS COMPRISING THE SAME” (Nippon Steel Corporation, priority 1994, dated 1996).
Some entries share one result that the patent states for a list of compounds.

Test system: Human Platelet Aggregation
Test: in vitro human platelet aggregation using PRP (collagen-induced, light transmittance)
Type: cell-based
Conditions: compared with the compounds prepared in the comparative examples, summary of Table 2
Text: (Measurement of in vitro Human Platelet Aggregation using PRP)
Healthy male volunteers who had not taken any medicines for at least two weeks were selected as subjects. Blood was collected from the forearm vein of each subject on an empty stomach using a #19 needle and a plastic syringe preliminarily charged with 1/10 volume of a 3.8% sodium citrate solution. Immediately after the blood collection, the syringe was shaken gently to mix the blood with the sodium citrate solution. The mixed blood was centrifuged (1100 rpm, 250 g) at room temperature for 15 minutes and the rotation was stopped without applying the brake. […] After the preparation of the PRP, the number of platelets was counted and only samples containing more than 2 x 10^8 of platelets per milliliter were subjected to the following experiments.
Platelet aggregation was measured using an 8-channel platelet aggregation measuring instrument (Hematracer, Nikoh Bioscience, Tokyo, Japan) on the basis of the change in light transmittance through the PRP. […] Thereafter, the transmittance was measured. The transmittance of the PPP was determined as 100% and that of the PRP as 0%. […] A collagen solution (10 µ l) at a concentration of […] was added (final concentration: 5 µ g/ml) to induce aggregation and thereafter the transmittance was measured over 7 minutes. […]
The results were calculated as follows: [formula] […]

CC(C)(CNC(=O)c1ccc(C(=N)N)cc1)C(=O)N1CCC(CC(=O)O)CC1 [Example 1, N-(N-4-amidinobenzoyl-α,α-dimethyl-β-alanyl)-4-piperidineacetic acid]
platelet-aggregation inhibiting activity (comparison in words): higher
